Laboratory results reported in PubChem BioAssay AID504847 (National Center for Advancing Translational Sciences (NCATS), 2011).
Where “and” joins values, the source holds several entries; their conditions need not be identical. Equal entries are not always repeated. The campaign covered roughly 400,000 compounds. About 3,700 (0.93%) were called active. The inconclusive results got no clear call from the source; some entries with a clear call stand among them for comparison. Calls come from the whole dose curve; as a rule, active = well fitted inhibition curve with a large enough effect; inconclusive = small, poorly fitted or top-dose-only effect, or another doubt; inactive = no such curve, though single readings can be large or run the other way. Potencies beside an inconclusive call are fits to weak or partial responses and may not hold up.

Sequences of proteins named here, by UniProt entry; tags and fusion partners are left off. A change or cut given only in a name is not applied to a line headed by its entry.
UniProt P11473: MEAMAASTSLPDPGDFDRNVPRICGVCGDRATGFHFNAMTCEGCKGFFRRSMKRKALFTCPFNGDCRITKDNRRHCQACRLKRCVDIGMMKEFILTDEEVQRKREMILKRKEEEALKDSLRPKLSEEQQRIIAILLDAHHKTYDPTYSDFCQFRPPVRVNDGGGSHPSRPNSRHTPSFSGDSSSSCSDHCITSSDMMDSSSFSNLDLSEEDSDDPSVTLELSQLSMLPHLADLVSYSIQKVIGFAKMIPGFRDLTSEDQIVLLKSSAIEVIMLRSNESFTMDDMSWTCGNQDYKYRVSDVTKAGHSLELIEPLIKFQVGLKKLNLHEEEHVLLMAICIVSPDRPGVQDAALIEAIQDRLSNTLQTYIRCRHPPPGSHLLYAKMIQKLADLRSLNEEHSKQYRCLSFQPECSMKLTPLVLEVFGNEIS

Molecular target: Vitamin D3 receptor (Homo sapiens) (UniProt P11473)
Assay: Inhibitors of the vitamin D receptor (VDR): qHTS
Settings: VDR-SRC2-3 peptide fluorescence polarization, 2 h; max response, negative = inhibition: hits give low values
Description: The vitamin D receptor (VDR) is a ligand-activated transcription factor and is partially responsible for the regulation of the endocrine system. This includes the transcriptional regulation of genes involved in the production of the parathyroid hormone (PTH) and the regulation of the blood calcium level. High levels of PHT can cause hypercalcemia in the case of primary and tertiary hyperparathyroidism. The VDR-mediated gene regulation, activated by its ligand 1,25-dihydroxyvitamin D3 (1,25-(OH)2D3), is governed by the recruitment of coactivators. Our hypothesis is that small molecules, with the ability to inhibit the interaction between VDR and certain coactivators, are able to selectively modulate VDR-mediated transcription. Our long term objective is the application these VDR-coactivator inhibitors to study the role of VDR-coactivator binding for specific VDR regulated genes. Ultimately, these molecules can be developed into new treatments for hypercalcemic hyperparathyroidism. No small molecule or non-peptide inhibitors are known for the VDR-coactivator interaction.
In a collaboration between the University of Wisconsin, Milwaukee and the NIH Chemical Genomics Center (NCGC) a HTS-compatible enzymatic assay was developed. The assay uses fluorescence polarization as its read-out to measure the inhibition between VDR and coregulator peptide SRC2-3 exerted by small molecules. This assay was used to screen the NIH Molecular Libraries Small Molecule Repository (MLSMR).
NIH Chemical Genomics Center [NCGC]
NIH Molecular Libraries Probe Centers Network [MLPCN]
Assay Submitter (PI): Alexander Arnold, University of Wilwaukee
Both solutions are kept at 4 deg C and protected from light and dispensed using a Kalypsys dispenser. Then 23nl of compounds and controls are added with Kalypsys pintool. […] Plate is centrifuged at 1000 RPM for 15 seconds to remove any residual bubbles. The plate is then incubate at ambient room temperature for 2 hours.
% is set by controls: 0 for no effect and ±100 for the full control effect; potency is the fitted concentration of half-maximal effect.

Row | Structure (SMILES) | Potency | max response, negative = inhibition
1 | N#C/C(=N\Nc1ccc(S(=O)(=O)N2CCCCCC2)cc1)C(N)=S | inconclusive: 89.1 µM [inhibitor, partial curve, poor fit] | –
2 | CCCOc1ccc(C(C)=O)cc1Cc1c(O)nc(SC)[nH]c1=O | – | inactive: -12.1%
3 | Cc1ccccc1NC(=O)/C(C#N)=C/c1ccc(Cl)cc1Cl | inconclusive: 25.1 µM [inhibitor, partial curve, poor fit] | –
4 | CCOC(=O)COc1ccc(Br)cc1/C=C/c1[nH]c(=O)[nH]c(=O)c1[N+](=O)[O-] | active: 14.1 µM | –
5 | Cc1ccc(CS(=O)(=O)c2ncc(Cl)c(C(=O)Nc3nnc(C(C)C)s3)n2)cc1 | active: 10 µM and active: 12.6 µM | –
6 | Cn1cnc([N+](=O)[O-])c1S(=O)(=O)c1ccc(Cl)cc1 | active: 50.1 µM | –
7 | Fc1ccccc1NC(=S)Nc1cccc2cnccc12 | inconclusive: 89.1 µM [inhibitor, single point] | –
8 | CC(C)CCN1C(=O)c2ccc(C(=O)Nc3ccc(Br)cc3C(=O)O)cc2C1=O | active: 79.4 µM | –
9 | Cc1ccc(C(=O)Nc2nc(=O)n(C(=O)c3ccccc3C)s2)cc1 | active: 22.4 µM | –
10 | CN1CCc2cc3c(c4c2C1CC41CCC(=NO)CC1)OCO3 (stereo not drawn) | – | inactive: 5.74%
11 | N#CCCn1c(=O)c(-c2ccc(F)cc2)nc2cnc(Oc3cccc(Cl)c3)nc21 | – | inactive: 0.907%
12 | O=C(COC(=O)CCc1nc2ccccc2c(=O)[nH]1)Nc1ccc(Cl)cn1 | inconclusive: 22.4 µM [inhibitor, partial curve, poor fit] | –
13 | CCOC(=O)c1c(NC(=O)c2cc(-c3ccc(OC)c(OC)c3)on2)sc2c1CCCC2 | inconclusive: 89.1 µM [inhibitor, single point] | –
14 | COc1cc(C(c2c(C)[nH][nH]c2=O)c2c(C)[nH][nH]c2=O)ccc1OC(=O)c1ccccc1OC | inconclusive: 70.8 µM [inhibitor, partial curve] | –
15 | CC1=NOC(=O)/C1=C/c1ccc(O)c(Br)c1 | inconclusive: 12.6 µM [inhibitor, partial curve, poor fit] | –
16 | COc1ccc(C(c2oc(CO)cc(=O)c2O)c2oc(CO)cc(=O)c2O)cc1 | – | inactive: -0.97%
17 | O=C1C(Cl)=C(N2CCCC2)C(=O)N1c1ccc(F)cc1 | inconclusive: 79.4 µM [inhibitor, single point] | –
18 | CCCC1O[C@@H]2CC3C4CCC5=CC(=O)C=C[C@]5(C)C4C(OC(C)=O)C[C@]3(C)[C@]2(C(=O)COC(C)=O)O1 (stereo partly drawn) | inconclusive: 28.2 µM [inhibitor, single point] | –

Reprinted at random: 2 entries already listed.
Row | Structure (SMILES) | Potency | max response, negative = inhibition
4 | CCOC(=O)COc1ccc(Br)cc1/C=C/c1[nH]c(=O)[nH]c(=O)c1[N+](=O)[O-] | active: 14.1 µM | –
18 | CCCC1O[C@@H]2CC3C4CCC5=CC(=O)C=C[C@]5(C)C4C(OC(C)=O)C[C@]3(C)[C@]2(C(=O)COC(C)=O)O1 (stereo partly drawn) | inconclusive: 28.2 µM [inhibitor, single point] | –
